According to patent US20240247038A1:
Results are given in words; binding and its absence hold for the method and conditions named. Some results given as binding are weak or reduced against the parent protein; the word gives no strength.

Amino acid sequences for entries named in this document (tags omitted). A change or cut given only in a name is not applied to a line headed by its entry.
UniProt P09038: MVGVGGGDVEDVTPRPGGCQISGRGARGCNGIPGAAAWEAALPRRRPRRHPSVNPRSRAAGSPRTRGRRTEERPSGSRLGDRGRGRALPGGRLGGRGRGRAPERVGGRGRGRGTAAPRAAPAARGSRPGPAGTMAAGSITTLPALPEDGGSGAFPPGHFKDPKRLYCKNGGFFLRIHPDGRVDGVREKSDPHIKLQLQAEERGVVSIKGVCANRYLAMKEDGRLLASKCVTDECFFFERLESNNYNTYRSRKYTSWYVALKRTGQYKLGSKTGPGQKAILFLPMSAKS

Tests used:
[1] = target: Jagged1-Fc fusion protein (commercial, R&D Systems; as used in native gel electrophoresis) (human); assay: native agarose gel electrophoresis (FIG. 6A)
[2] = target: Jagged1-Fc fusion protein (commercial, R&D Systems; as used in native gel electrophoresis) (human); assay: native isoelectric focusing gel (FIG. 6A)

recombinant human FGF2 (low molecular weight isoform, 18 kDa) (from UniProt P09038 143-288) (ligand)
binding [1]: binds | binding [2]: binds
